Data reported in publication PMC4519330.

By UniProt entry, the sequences of proteins in these tests, tags left out. Where a name states a change or a piece, a line headed by the entry shows the natural chain unless it says otherwise.
UniProt Q9Y4K3: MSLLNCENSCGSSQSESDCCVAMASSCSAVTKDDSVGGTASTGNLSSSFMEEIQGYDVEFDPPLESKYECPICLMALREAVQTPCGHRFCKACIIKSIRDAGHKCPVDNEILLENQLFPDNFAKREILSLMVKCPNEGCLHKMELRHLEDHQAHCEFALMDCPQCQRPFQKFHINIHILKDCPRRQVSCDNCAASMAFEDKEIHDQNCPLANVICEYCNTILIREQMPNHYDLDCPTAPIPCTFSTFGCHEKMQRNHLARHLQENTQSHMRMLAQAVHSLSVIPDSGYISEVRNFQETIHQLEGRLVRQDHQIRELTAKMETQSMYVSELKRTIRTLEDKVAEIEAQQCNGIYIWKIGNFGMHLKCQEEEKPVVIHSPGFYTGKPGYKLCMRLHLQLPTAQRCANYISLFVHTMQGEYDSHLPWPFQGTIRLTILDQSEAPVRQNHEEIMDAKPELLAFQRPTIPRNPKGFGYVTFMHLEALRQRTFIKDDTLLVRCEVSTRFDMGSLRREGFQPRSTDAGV
UniProt Q7Z434: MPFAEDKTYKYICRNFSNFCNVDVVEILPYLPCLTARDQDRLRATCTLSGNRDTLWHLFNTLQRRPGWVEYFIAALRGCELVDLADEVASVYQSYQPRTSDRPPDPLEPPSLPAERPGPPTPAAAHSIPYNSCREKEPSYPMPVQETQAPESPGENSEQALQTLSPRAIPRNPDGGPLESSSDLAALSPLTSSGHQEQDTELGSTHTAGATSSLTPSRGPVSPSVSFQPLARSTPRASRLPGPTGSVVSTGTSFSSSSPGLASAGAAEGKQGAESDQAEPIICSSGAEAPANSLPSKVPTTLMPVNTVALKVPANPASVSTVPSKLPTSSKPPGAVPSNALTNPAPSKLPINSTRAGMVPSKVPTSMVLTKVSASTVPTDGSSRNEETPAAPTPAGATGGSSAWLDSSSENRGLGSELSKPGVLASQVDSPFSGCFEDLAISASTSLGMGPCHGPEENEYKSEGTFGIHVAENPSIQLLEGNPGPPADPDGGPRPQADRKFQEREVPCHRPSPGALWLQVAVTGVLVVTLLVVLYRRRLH

Assays:
[1] = biological target: T1, Flag-TRAF2 (UniProt Q12933); test: co-IP; 293T cells co-transfected; lysates in NP40 buffer (50 mM Tris-HCl pH 7.4, 150 mM NaCl, 5 mM EDTA, 1% NP40) precipitated with anti-Flag agarose at 4°C for 4-6 hours; immunoblot
T1 sequence: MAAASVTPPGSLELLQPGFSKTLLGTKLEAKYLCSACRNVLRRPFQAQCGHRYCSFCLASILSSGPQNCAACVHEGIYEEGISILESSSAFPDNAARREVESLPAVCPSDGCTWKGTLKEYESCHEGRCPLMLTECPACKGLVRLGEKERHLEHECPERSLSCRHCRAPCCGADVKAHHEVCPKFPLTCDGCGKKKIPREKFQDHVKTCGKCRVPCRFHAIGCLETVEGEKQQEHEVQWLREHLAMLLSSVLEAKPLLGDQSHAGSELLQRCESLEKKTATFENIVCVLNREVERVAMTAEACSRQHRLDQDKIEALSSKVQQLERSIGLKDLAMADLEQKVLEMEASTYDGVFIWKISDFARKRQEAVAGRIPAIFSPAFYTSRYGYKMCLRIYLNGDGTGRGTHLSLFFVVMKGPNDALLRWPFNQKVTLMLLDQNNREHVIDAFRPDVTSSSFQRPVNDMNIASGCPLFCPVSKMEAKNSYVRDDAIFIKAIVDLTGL

[2] = biological target: Flag-TRAF6 (UniProt Q9Y4K3); test: as above

Row | binding [1] | binding [2] | Substance
1 | binds | binds | MAVS50 mutant of TRAF6-binding (M6) (from UniProt Q7Z434)
2 | no binding | – | MAVS50 mutant of TRAF2-binding (M2) (from UniProt Q7Z434)

These are yes or no findings as the source states them, for the method shown. Binding seen in cells or lysates may run through a third protein. Binding calls can cover weak binding; strength is not graded here. For part of these data: Tags and fused reporters may be left off the sequences shown.
